Test results as given in US20220265769A1, “COMPOSITIONS AND METHODS OF TREATMENT FOR BREAST CANCER INVOLVING A NOVEL CAPER?-MLL1 COMPLEX” (Geisinger Health, priority 2019, published 2022).

Tested on: T47D cells
Assay: Nuclear entry of His-tagged peptides in T47D cells (anti-His immunoblot of Dignam lysates, immunocytochemistry)
Format: cell-based, human

## CPP-E445-V476: synthetic RRM3-derived peptide E445-V476 with Penetratin and His tags (SEQ ID NO: 15; with His tag SEQ ID NO: 14) (RQIKIWFQNRRMKWKKGGEIKDDVIEECNKHGGVIHIYVDKNSAQGNVYVHHHHHH; RRM3-derived synthetic sequence)
  subcellular localisation of His-tagged peptide (anti-His immunocytochemistry): in cytoplasm and nucleus of all cells
